Laboratory results taken from PMC8257531.

T1: ARL15^A86L (BioID bait) (UniProt Q9NXU5)
T1 sequence: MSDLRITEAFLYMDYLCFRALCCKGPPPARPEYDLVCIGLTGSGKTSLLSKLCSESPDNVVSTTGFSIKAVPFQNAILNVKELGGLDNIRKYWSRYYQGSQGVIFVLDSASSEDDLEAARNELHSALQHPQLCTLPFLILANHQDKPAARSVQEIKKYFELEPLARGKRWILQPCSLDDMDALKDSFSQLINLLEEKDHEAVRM

B1: ribophorin I protein (RPN1), endogenous, BioID prey (protein, UniProt P04843 24-607)
chain: ASSEAPPLINEDVKRTVDLSSHLAKVTAEVVLAHLGGGSTSRATSFLLALEPELEARLAHLGVQVKGEDEEENNLEVRETKIKGKSGRFFTVKLPVALDPGAKISVIVETVYTHVLHPYPTQITQSEKQFVVFEGNHYFYSPYPTKTQTMRVKLASRNVESYTKLGNPTRSEDLLDYGPFRDVPAYSQDTFKVHYENNSPFLTITSMTRVIEVSHWGNIAVEENVDLKHTGAVLKGPFSRYDYQRQPDSGISSIRSFKTILPAAAQDVYYRDEIGNVSTSHLLILDDSVEMEIRPRFPLFGGWKTHYIVGYNLPSYEYLYNLGDQYALKMRFVDHVFDEQVIDSLTVKIILPEGAKNIEIDSPYEISRAPDELHYTYLDTFGRPVIVAYKKNLVEQHIQDIVVHYTFNKVLMLQEPLLVVAAFYILFFTVIIYVRLDFSITKDPAAEARMKVACITEQVLTLVNKRIGLYRHFDETVNRYKQSRDISTLNSGKKSLETEHKALTSEIALLQSRLKTEGSDLCDRVSEMQKLDAQVKELVLKSAVEAERLVAGKLKKDTYIENEKLISGKRQELVTKIDHILDAL
B2: STT3B (protein, UniProt Q8TCJ2 1-826)
chain: MAEPSAPESKHKSSLNSSPWSGLMALGNSRHGHHGPGAQCAHKAAGGAAPPKPAPAGLSGGLSQPAGWQSLLSFTILFLAWLAGFSSRLFAVIRFESIIHEFDPWFNYRSTHHLASHGFYEFLNWFDERAWYPLGRIVGGTVYPGLMITAGLIHWILNTLNITVHIRDVCVFLAPTFSGLTSISTFLLTRELWNQGAGLLAACFIAIVPGYISRSVAGSFDNEGIAIFALQFTYYLWVKSVKTGSVFWTMCCCLSYFYMVSAWGGYVFIINLIPLHVFVLLLMQRYSKRVYIAYSTFYIVGLILSMQIPFVGFQPIRTSEHMAAAGVFALLQAYAFLQYLRDRLTKQEFQTLFFLGVSLAAGAVFLSVIYLTYTGYIAPWSGRFYSLWDTGYAKIHIPIIASVSEHQPTTWVSFFFDLHILVCTFPAGLWFCIKNINDERVFVALYAISAVYFAGVMVRLMLTLTPVVCMLSAIAFSNVFEHYLGDDMKRENPPVEDSSDEDDKRNQGNLYDKAGKVRKHATEQEKTEEGLGPNIKSIVTMLMLMLLMMFAVHCTWVTSNAYSSPSVVLASYNHDGTRNILDDFREAYFWLRQNTDEHARVMSWWDYGYQIAGMANRTTLVDNNTWNNSHIALVGKAMSSNETAAYKIMRTLDVDYVLVIFGGVIGYSGDDINKFLWMVRIAEGEHPKDIRESDYFTPQGEFRVDKAGSPTLLNCLMYKMSYYRFGEMQLDFRTPPGFDRTRNAEIGNKDIKFKHLEEAFTSEHWLVRIYKVKAPDNRETLDHKPRVTNIFPKQKYLSKKTTKRKRGYIKNKLVFKKGKKISKKTV
B3: SLC26A3 (protein, UniProt P40879 1-764)
chain: MIEPFGNQYIVARPVYSTNAFEENHKKTGRHHKTFLDHLKVCCSCSPQKAKRIVLSLFPIASWLPAYRLKEWLLSDIVSGISTGIVAVLQGLAFALLVDIPPVYGLYASFFPAIIYLFFGTSRHISVGPFPILSMMVGLAVSGAVSKAVPDRNATTLGLPNNSNNSSLLDDERVRVAAAASVTVLSGIIQLAFGILRIGFVVIYLSESLISGFTTAAAVHVLVSQLKFIFQLTVPSHTDPVSIFKVLYSVFSQIEKTNIADLVTALIVLLVVSIVKEINQRFKDKLPVPIPIEFIMTVIAAGVSYGCDFKNRFKVAVVGDMNPGFQPPITPDVETFQNTVGDCFGIAMVAFAVAFSVASVYSLKYDYPLDGNQELIALGLGNIVCGVFRGFAGSTALSRSAVQESTGGKTQIAGLIGAIIVLIVVLAIGFLLAPLQKSVLAALALGNLKGMLMQFAEIGRLWRKDKYDCLIWIMTFIFTIVLGLGLGLAASVAFQLLTIVFRTQFPKCSTLANIGRTNIYKNKKDYYDMYEPEGVKIFRCPSPIYFANIGFFRRKLIDAVGFSPLRILRKRNKALRKIRKLQKQGLLQVTPKGFICTVDTIKDSDEELDNNQIEVLDQPINTTDLPFHIDWNDDLPLNIEVPKISLHSLILDFSAVSFLDVSSVRGLKSILQEFIRIKVDVYIVGTDDDFIEKLNRYEFFDGEVKSSIFFLTIHDAVLHILMKKDYSTSKFNPSQEKDGKIDFTINTNGGLRNRVYEVPVETKF
B4: STT3A (protein, UniProt P46977 1-705)
chain: MTKFGFLRLSYEKQDTLLKLLILSMAAVLSFSTRLFAVLRFESVIHEFDPYFNYRTTRFLAEEGFYKFHNWFDDRAWYPLGRIIGGTIYPGLMITSAAIYHVLHFFHITIDIRNVCVFLAPLFSSFTTIVTYHLTKELKDAGAGLLAAAMIAVVPGYISRSVAGSYDNEGIAIFCMLLTYYMWIKAVKTGSICWAAKCALAYFYMVSSWGGYVFLINLIPLHVLVLMLTGRFSHRIYVAYCTVYCLGTILSMQISFVGFQPVLSSEHMAAFGVFGLCQIHAFVDYLRSKLNPQQFEVLFRSVISLVGFVLLTVGALLMLTGKISPWTGRFYSLLDPSYAKNNIPIIASVSEHQPTTWSSYYFDLQLLVFMFPVGLYYCFSNLSDARIFIIMYGVTSMYFSAVMVRLMLVLAPVMCILSGIGVSQVLSTYMKNLDISRPDKKSKKQQDSTYPIKNEVASGMILVMAFFLITYTFHSTWVTSEAYSSPSIVLSARGGDGSRIIFDDFREAYYWLRHNTPEDAKVMSWWDYGYQITAMANRTILVDNNTWNNTHISRVGQAMASTEEKAYEIMRELDVSYVLVIFGGLTGYSSDDINKFLWMVRIGGSTDTGKHIKENDYYTPTGEFRVDREGSPVLLNCLMYKMCYYRFGQVYTEAKRPPGFDRVRNAEIGNKDFELDVLEEAYTTEHWLVRIYKVKDLDNRGLSRT
B5: LMAN1 (protein, UniProt P49257 31-510)
chain: DGVGGDPAVALPHRRFEYKYSFKGPHLVQSDGTVPFWAHAGNAIPSSDQIRVAPSLKSQRGSVWTKTKAAFENWEVEVTFRVTGRGRIGADGLAIWYAENQGLEGPVFGSADLWNGVGIFFDSFDNDGKKNNPAIVIIGNNGQIHYDHQNDGASQALASCQRDFRNKPYPVRAKITYYQNTLTVMINNGFTPDKNDYEFCAKVENMIIPAQGHFGISAATGGLADDHDVLSFLTFQLTEPGKEPPTPDKEISEKEKEKYQEEFEHFQQELDKKKEEFQKGHPDLQGQPAEEIFESVGDRELRQVFEGQNRIHLEIKQLNRQLDMILDEQRRYVSSLTEEISKRGAGMPGQHGQITQQELDTVVKTQHEILRQVNEMKNSMSETVRLVSGMQHPGSAGGVYETTQHFIDIKEHLHIVKRDIDNLVQRNMPSNEKPKCPELPPFPSCLSTVHFIIFVVVQTVLFIGYIMYRSQQEAAAKKFF
B6: SLC12A2 (protein, UniProt P55011 1-1212)
chain: MEPRPTAPSSGAPGLAGVGETPSAAALAAARVELPGTAVPSVPEDAAPASRDGGGVRDEGPAAAGDGLGRPLGPTPSQSRFQVDLVSENAGRAAAAAAAAAAAAAAAGAGAGAKQTPADGEASGESEPAKGSEEAKGRFRVNFVDPAASSSAEDSLSDAAGVGVDGPNVSFQNGGDTVLSEGSSLHSGGGGGSGHHQHYYYDTHTNTYYLRTFGHNTMDAVPRIDHYRHTAAQLGEKLLRPSLAELHDELEKEPFEDGFANGEESTPTRDAVVTYTAESKGVVKFGWIKGVLVRCMLNIWGVMLFIRLSWIVGQAGIGLSVLVIMMATVVTTITGLSTSAIATNGFVRGGGAYYLISRSLGPEFGGAIGLIFAFANAVAVAMYVVGFAETVVELLKEHSILMIDEINDIRIIGAITVVILLGISVAGMEWEAKAQIVLLVILLLAIGDFVIGTFIPLESKKPKGFFGYKSEIFNENFGPDFREEETFFSVFAIFFPAATGILAGANISGDLADPQSAIPKGTLLAILITTLVYVGIAVSVGSCVVRDATGNVNDTIVTELTNCTSAACKLNFDFSSCESSPCSYGLMNNFQVMSMVSGFTPLISAGIFSATLSSALASLVSAPKIFQALCKDNIYPAFQMFAKGYGKNNEPLRGYILTFLIALGFILIAELNVIAPIISNFFLASYALINFSVFHASLAKSPGWRPAFKYYNMWISLLGAILCCIVMFVINWWAALLTYVIVLGLYIYVTYKKPDVNWGSSTQALTYLNALQHSIRLSGVEDHVKNFRPQCLVMTGAPNSRPALLHLVHDFTKNVGLMICGHVHMGPRRQAMKEMSIDQAKYQRWLIKNKMKAFYAPVHADDLREGAQYLMQAAGLGRMKPNTLVLGFKKDWLQADMRDVDMYINLFHDAFDIQYGVVVIRLKEGLDISHLQGQEELLSSQEKSPGTKDVVVSVEYSKKSDLDTSKPLSEKPITHKVEEEDGKTATQPLLKKESKGPIVPLNVADQKLLEASTQFQKKQGKNTIDVWWLFDDGGLTLLIPYLLTTKKKWKDCKIRVFIGGKINRIDHDRRAMATLLSKFRIDFSDIMVLGDINTKPKKENIIAFEEIIEPYRLHEDDKEQDIADKMKEDEPWRITDNELELYKTKTYRQIRLNELLKEHSSTANIIVMSLPVARKGAVSSALYMAWLEALSKDLPPILLVRGNHQSVLTFYS

Target: T1, ARL15^A86L (BioID bait)
Assay: proximity labelling; BioID; cleared lysates of ARL15^A86L expressing Flp-In T-REx HeLa cells on streptavidin beads, on-bead trypsin digestion, mass spectrometry; SAINT AvgP >= 0.95

binding	Binder
binds	B1
binds	B2
binds	B3
binds	B4
binds	B5
binds	B6

No constants are given. Whether binding was seen depends on the method and setting. Binding seen in cells or lysates may run through a third protein. Here binding means that the protein was enriched with, or labelled near, the bait; the list need not be complete.
